Assay results published in patent US20200062817A1.
Results are given in words; binding and its absence hold for the method and conditions named. Binding seen in cells or lysates may run through a third protein. Some binding calls cover weakened binding; strength is not graded here. Tags and fused reporters may be left off the sequences shown.

T1: human IL-27 beta-subunit EBI3 (hEBI3) (human) (UniProt Q14213)
T1 sequence: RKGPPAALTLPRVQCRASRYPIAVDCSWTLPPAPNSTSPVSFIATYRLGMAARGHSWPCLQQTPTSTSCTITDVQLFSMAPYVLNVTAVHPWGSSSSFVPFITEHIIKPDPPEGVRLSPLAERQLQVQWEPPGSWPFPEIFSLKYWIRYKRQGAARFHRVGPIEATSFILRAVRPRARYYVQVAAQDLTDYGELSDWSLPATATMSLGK


Assays:
[1] = molecular target: T1, human IL-27 beta-subunit EBI3 (hEBI3) (human); test: co-immunoprecipitation with anti-V5 from medium of 293T cells, immunoblot against EBI3
[2] = molecular target: T1, human IL-27 beta-subunit EBI3 (hEBI3) (human); test: co-immunoprecipitation

| binding [1] | binding [2] | Binder |
| --- | --- | --- |
| binds | binds | mouse IL-27 alpha-subunit (mIL-27α), wild type, with C-terminal (GS)4-linker and V5 tag (ligand, not shown: small tags and cut ends) FPTDPLSLQELRREFTVSLYLARKLLSEVQGYVHSFAESRLPGVNLDLLPLGYHLPNVSLTFQAWHHLSDSERLCFLATTLRPFPAMLGGLGTQGTWTSSEREQLWAMRLDLRDLHRHLRFQVLAAGFKCSKEEEDKEEEEEEEEEEKKLPLGALGGPNQVSSQVSWPQLLYTYQLLHSLELVLSRAVRDLLLLSLPRRPGSAWDSGSGSGSGS |
| binds | – | mIL-27α^C158L, with C-terminal (GS)4-linker and V5 tag (ligand, not shown: small tags and cut ends) FPTDPLSLQELRREFTVSLYLARKLLSEVQGYVHSFAESRLPGVNLDLLPLGYHLPNVSLTFQAWHHLSDSERLCFLATTLRPFPAMLGGLGTQGTWTSSEREQLWAMRLDLRDLHRHLRFQVLAAGFKLSKEEEDKEEEEEEEEEEKKLPLGALGGPNQVSSQVSWPQLLYTYQLLHSLELVLSRAVRDLLLLSLPRRPGSAWDSGSGSGSGS |
